A short description of data set [1]: Example 11: increase in magenta stain on ageing of material processed with stabilizer. Conditions: 100 mg/l in stabilizer; 45° C., 70% RH, one week.
Data set [2] is described as follows: Example 6: precipitate in the color developing solution after running process. Further details: key: ◯: indicates that the solution contained no precipitate at all.; X: indicates that the larger the numeral, the larger the amount of the precipitate in the solution. Conditions: color developing solution of pH 10.25 after running.
A short description of data set [3]: Example 8: developing agent remaining in aged color developer with added ferric and calcium ion, HPLC. To be noted: 1 g/l (HEDP 60%: 1.6 g/l), 5 ppm ferric ion, 150 ppm calcium ion, 38° C., 20 days.
The nature of data set [4]: Example 5: filter clogging, ageing test of the bleach-fixing solution without photosensitive material. Further details: key: ◯: scarce clogging; Δ: partial clogging; ×: Substantially the whole filter was clogging, but the liquid could pass through the filter.; ××: the complete clogging, and the liquid extremely difficultly passes through the filter. To be noted: 35° C., one week, without passing photosensitive material.

Data set [5] is described as follows: Example 8: precipitate in the color developing solution after ageing. The arrangement: key: ◯: indicates that no precipitate was formed at all.; indicates that the precipitate was formed. The larger the number of X, the more serious the precipitation. To be noted: 1 g/l (HEDP 60%: 1.6 g/l); 5 ppm ferric ion, 150 ppm calcium ion; 38° C., 20 days.
The nature of data set [6]: Example 6: residual rates of developing agent and hydroxylamine in color developer after running process. Conditions: chelating agent 0.01 mol/l in color developer; for Residual amount of hydroxylamine (pH 9.85) / Residual amount of main ingredient (pH 9.85): pH 9.85, after running; for Residual amount of hydroxylamine (pH 10.25) / Residual amount of main ingredient (pH 10.25): pH 10.25, after running.

Data set [7] in a line: Example 9: precipitation in the color developer after ageing, macroscopic. The arrangement: key: G represents no precipitate at all.; Larger the number of B's, the larger the amount of the precipitate. Conditions: 38° C., 30 days; 0.01 mol chelating compound; 5 ppm ferric, 150 ppm calcium ion.
Data set [8] can be described thus: Example 9: difference in B density between aged and fresh color developer. Conditions: aged (38° C., 30 days) minus fresh developer; 0.01 mol chelating compound; 5 ppm ferric, 150 ppm calcium ion.
Data set [9] is described as follows: Example 2: residual silver after bleach-fixing (PBlix), fluorescent X-ray method. To be noted: 35° C., chelating agent with ferric nitrate.
Data set [10] is described as follows: Example 10: turbidity of fixing bath with added ferric ion after ageing. Conditions: 3 g/l in fixing bath with ferric ion, 38° C., 30 days.
The nature of data set [11]: Example 1: bleaching fog, Dmin (G light) versus standard bleaching solution. To be noted: relative to standard bleaching solution (Dmin 0.60).
A short description of data set [12]: Example 2: Blix decoloring, Dmax (R light) before and after reprocessing (PEDTA).
Data set [13] is described as follows: Example 1: increase in stain during dark wet-heat storage of processed material. To be noted: 60° C., 70% RH, 4 weeks.
A short description of data set [14]: Example 1: residual silver in highest density part after running bleach-fixing process (NBlix), fluorescent X-ray analysis. Conditions: chelating agent 0.17 mol/l with ferric nitrate in bleach-fixing bath, 110 sec, 45° C.

The structures appear in SMILES notation.

Experimental findings from patent publication US6340560B1, “Aminopolycarboxylic acid chelating agent, heavy metal chelate compound thereof, photographic additive and processing method” (Fuji Photo Film Co., Ltd., priority 1996, dated 2002) are described below.

For the molecule `CN(CCN(C)C(CC(=O)O)C(=O)O)C(CC(=O)O)C(=O)O` (stereo not shown) [Compound 1], in data set [1], the “increase in the magenta stain ΔDmin” value is given as 0.09. Besides, the Precipitation entry in data set [2] and in data set [5] was “◯” in each case. Besides, the “Residual amount of main ingredient (pH 9.85)” value in [3] came to 83%; in data set [6] it was 80%. For the same molecule, the “Residual amount of main ingredient (pH 10.25)” value in data set [3] and in data set [6] was 78% throughout. Besides, the Clogging of filter entry in [4] is recorded as “◯”. The “Residual amount of hydroxylamine (pH 9.85)” value in data set [6] was found to be 79%. Further, in data set [6], the “Residual amount of hydroxylamine (pH 10.25)” value amounted to 77%. Further, the Precipitate result in [7] is on record as “G”. In addition, the ΔDmax in data set [8] was −0.05. For the same molecule, the “Quantity of residual silver” value in data set [9] (bleach-fixing time 20 sec) worked out at 3.1 μg/cm^2; in data set [9] (bleach-fixing time 45 sec) it was 1.0 μg/cm^2. Further, the “turbidity of the solution” value in [10] is recorded as “kept the transparency”. Besides, in data set [11], the “Bleaching fog ΔDmin (G)” value is reported as 0.00. In addition, the “Blix decoloring ΔDmax (R)” value in data set [12] (bleach-fixing time 20 sec) and in data set [12] (bleach-fixing time 45 sec) was 0.00 in each case. Also, the “Increase in stain ΔD (G)” value in data set [13] was 0.01. The “Amount of residual silver” value in data set [14] stood at 5.2 μm/cm^2.
Regarding `CN(CCCN(C)C(CC(=O)O)C(=O)O)C(CC(=O)O)C(=O)O` (stereo not shown) [Compound 3], the “increase in the magenta stain ΔDmin” value in data set [1] worked out at 0.13. Also, the Clogging of filter result in [4] is given as “◯”. Besides, the Precipitate entry in data set [7] is recorded as “G”. Further, in [8], the ΔDmax is reported as −0.05. Moreover, the “Quantity of residual silver” value in data set [9] (bleach-fixing time 20 sec) was found to be 3.6 μg/cm^2; in data set [9] (bleach-fixing time 45 sec), 1.5 μg/cm^2. Further, the “turbidity of the solution” value in [10] is on record as “kept the transparency”. The “Bleaching fog ΔDmin (G)” value in data set [11] came out at 0.01. The “Blix decoloring ΔDmax (R)” value in [12] (bleach-fixing time 20 sec) and in [12] (bleach-fixing time 45 sec) was 0.00 in each case. Further, the “Increase in stain ΔD (G)” value in data set [13] is recorded as 0.01. Moreover, in data set [14], the “Amount of residual silver” value amounted to 7.5 μm/cm^2.
Take `CN(CCN(CCN(C)C(CC(=O)O)C(=O)O)CC(=O)O)C(CC(=O)O)C(=O)O` (stereo not shown) [Compound 11]: in data set [1], the “increase in the magenta stain ΔDmin” value stood at 0.09. In addition, the Precipitation entry in [2] is listed as “◯”. In data set [3], the “Residual amount of main ingredient (pH 9.85)” value stood at 89% and the “Residual amount of main ingredient (pH 10.25)” value is reported as 84%. The Precipitation result in data set [5] is reported as “◯”. Also, in [6], the “Residual amount of hydroxylamine (pH 9.85)” value is 85%, the “Residual amount of main ingredient (pH 9.85)” value was 86%, the “Residual amount of hydroxylamine (pH 10.25)” value turned out to be 81% and the “Residual amount of main ingredient (pH 10.25)” value was found to be 84%. Moreover, the Precipitate result in data set [7] is recorded as “G”. Moreover, the ΔDmax in data set [8] was −0.04. Besides, the “turbidity of the solution” value in [10] is “kept the transparency”.
Consider `CN(CCOCCN(C)C(CC(=O)O)C(=O)O)C(CC(=O)O)C(=O)O` (stereo not shown) [Compound 26], for which the “increase in the magenta stain ΔDmin” value in [1] stood at 0.11. Besides, the Precipitation entry in data set [2] is “◯”. Further, the Clogging of filter result in data set [4] was “◯”. For the same molecule, in data set [6], the “Residual amount of hydroxylamine (pH 9.85)” value is 72%, the “Residual amount of main ingredient (pH 9.85)” value was 75%, the “Residual amount of hydroxylamine (pH 10.25)” value is on record as 68% and the “Residual amount of main ingredient (pH 10.25)” value amounted to 73%. Besides, the Precipitate entry in data set [7] was “G”. Besides, the ΔDmax in data set [8] is −0.05. Moreover, in data set [9] (bleach-fixing time 20 sec), the “Quantity of residual silver” value amounted to 3.5 μg/cm^2. In addition, the “Quantity of residual silver” value in data set [9] (bleach-fixing time 45 sec) was determined as 1.6 μg/cm^2. Moreover, the “turbidity of the solution” value in data set [10] is “kept the transparency”. Moreover, the “Bleaching fog ΔDmin (G)” value in [11] is recorded as 0.01. Further, the “Blix decoloring ΔDmax (R)” value in data set [12] (bleach-fixing time 20 sec) is recorded as 0.00. For the same molecule, the “Blix decoloring ΔDmax (R)” value in data set [12] (bleach-fixing time 45 sec) was 0.00. In addition, in [13], the “Increase in stain ΔD (G)” value was determined as 0.02. In addition, the “Amount of residual silver” value in data set [14] is 6.7 μm/cm^2.
